Results taken from paper PMC11031989.
No constants are given. Whether binding was seen depends on the method and setting. Binding seen in cells or lysates may run through a third protein. Some entries that bind do so weakly or less than the wild type.

Amino acid sequences for entries named in this document (tags omitted). A change or cut given only in a name is not applied to a line headed by its entry. Chains listed by the source or under a name are the forms on record and can include a tag or linker.
HA-tagged 5-HT7R E325G;K327S (P32304, form named): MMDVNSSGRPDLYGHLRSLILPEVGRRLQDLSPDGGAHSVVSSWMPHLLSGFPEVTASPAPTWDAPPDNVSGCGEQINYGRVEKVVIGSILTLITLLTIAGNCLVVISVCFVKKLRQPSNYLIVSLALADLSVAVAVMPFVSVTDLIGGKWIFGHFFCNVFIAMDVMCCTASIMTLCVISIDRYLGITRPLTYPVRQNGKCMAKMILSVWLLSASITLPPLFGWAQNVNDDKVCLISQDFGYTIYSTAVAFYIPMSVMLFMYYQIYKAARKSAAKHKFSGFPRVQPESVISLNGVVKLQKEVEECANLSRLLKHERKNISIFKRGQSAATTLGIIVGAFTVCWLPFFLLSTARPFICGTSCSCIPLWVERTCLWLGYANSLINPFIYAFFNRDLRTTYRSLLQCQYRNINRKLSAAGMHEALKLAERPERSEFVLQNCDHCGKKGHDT
HA-tagged 5-HT7R E325G (P32304, form named): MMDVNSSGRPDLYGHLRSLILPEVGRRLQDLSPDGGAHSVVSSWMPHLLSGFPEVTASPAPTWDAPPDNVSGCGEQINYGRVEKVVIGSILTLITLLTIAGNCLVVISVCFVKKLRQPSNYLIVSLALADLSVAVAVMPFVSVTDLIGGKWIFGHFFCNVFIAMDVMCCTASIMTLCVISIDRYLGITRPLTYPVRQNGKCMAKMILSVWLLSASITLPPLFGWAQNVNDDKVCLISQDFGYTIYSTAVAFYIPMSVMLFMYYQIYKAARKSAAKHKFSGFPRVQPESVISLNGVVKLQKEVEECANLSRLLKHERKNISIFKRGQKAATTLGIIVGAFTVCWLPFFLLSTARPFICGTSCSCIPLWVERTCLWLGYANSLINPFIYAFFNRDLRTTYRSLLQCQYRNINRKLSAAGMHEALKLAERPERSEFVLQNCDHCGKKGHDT
HA-tagged 5-HT7R K327S (P32304, form named): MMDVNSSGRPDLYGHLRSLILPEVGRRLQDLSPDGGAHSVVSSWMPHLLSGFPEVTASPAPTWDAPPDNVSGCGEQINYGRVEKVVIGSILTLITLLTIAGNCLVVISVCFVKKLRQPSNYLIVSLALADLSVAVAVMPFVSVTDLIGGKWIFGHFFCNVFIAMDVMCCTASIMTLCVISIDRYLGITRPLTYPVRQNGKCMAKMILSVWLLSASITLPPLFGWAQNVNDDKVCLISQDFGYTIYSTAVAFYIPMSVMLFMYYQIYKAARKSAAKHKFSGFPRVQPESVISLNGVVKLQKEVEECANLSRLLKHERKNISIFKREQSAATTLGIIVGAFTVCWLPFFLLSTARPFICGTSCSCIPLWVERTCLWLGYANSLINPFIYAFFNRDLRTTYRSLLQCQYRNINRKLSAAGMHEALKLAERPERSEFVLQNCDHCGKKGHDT

Key:
[1] = target: mCherry-tagged 5-HT7R (serotonin receptor 7), wild type (UniProt P32304); test: co-IP; N1E-115 cells co-transfected with mCherry-tagged 5-HT7R and eCFP-tagged CDK5, lysed in RIPA buffer; IP overnight with anti-mCherry antibody (goat IgG as control), protein A sepharose; Western blot with anti-CFP antibody
[2] = target: mCherry-tagged 5-HT7R (serotonin receptor 7), wild type (UniProt P32304); test: condition: only cells expressing only one type of protein mixed prior to lysis ("mix" samples); co-IP; control 'mix': N1E-115 cells expressing only mCherry-5-HT7R or only eCFP-tagged CDK5 mixed prior to lysis; IP with anti-mCherry antibody, Western blot with anti-CFP antibody
[3] = target: mCherry-tagged CDK5 (cyclin-dependent kinase 5) (UniProt Q00535); test: co-IP; N1E-115 cells co-transfected with mCherry-tagged CDK5 and HA-tagged 5-HT7R constructs; IP with anti-mCherry antibody, Western blot with anti-HA antibody; ratio of co-precipitated receptor normalized to the WT sample; also done after knock-down of Gαs by shRNA (Additional file 5)

| binding [1] | binding [2] | binding [3] | Substance |
| --- | --- | --- | --- |
| binds | no binding |  | eCFP-tagged CDK5 (cyclin-dependent kinase 5) (from UniProt Q00535 1-292) (enzyme) |
|  |  | binds | HA-tagged 5-HT7R ΔR395 (from UniProt P32304 1-394) (domain or fragment) |
|  |  | binds | HA-tagged 5-HT7R E325G;K327S (from UniProt P32304 1-448) (receptor) |
|  |  | binds | HA-tagged 5-HT7R E325G (from UniProt P32304 1-448) (receptor) |
|  |  | binds | HA-tagged 5-HT7R K327S (from UniProt P32304 1-448) (receptor) |
